Experiment: soluble on expression in E. coli; label from the status in PepcDB or PDB records

| Sequence | soluble on expression in E. coli |
| --- | --- |
| APQQINDIVHRTITPLIEQQKIPGMAVAVIYQGKPYYFTWGYADIAKKQPVTQQTLFELGSVSKTFTGVLGGDAIARGEIKLSDPTTKYWPELTAKQWNGITLLHLATYTAGGLPLQVPDEVKSSSDLLRFYQNWQPAWAPGTQRLYANSSIGLFGALAVKPSGLSFEQAMQTRVFQPLKLNHTWINVPPAEEKNYAWGYREGKAVHAAAVSPGALDAEAYGVKSTIEDMARWVQSNLKPLDINEKTLQQGIQLAQSRYWQTGDMYQGLGWEMLDWPVNPDSIINGSDNKIALAARPVKAITPPTPAVRASWVHKTGATGGFGSYVAFIPEKELGIVMLANKNYPNPARVDAAWQILNALQ | soluble |
| ARHCGHCPEEWITYSNSCYYIGKERRTWEESLLACTSKNSSLLSIDNEEEMKFLSIISPSSWIGVFRNSSHHPWVTMNGLAFKHEIKDSDNAELNCAVLQVNRLKSAQCGSSIIYHCKHK | soluble |
| GPGSMVALRADMDALPEDEETDLPFKSQNKGAMHARGHEAHTAMLRSAAKVICARQADIEGSVRFIFQHAEELLPGGAKDLVAAGVMEGVKNIFGMHCSPRCEAGTVGLIPGINTSYADSFKLIIRGRGDHASTPQLLVDPVPITAEIVMAIQTITARKIDPRVVPVVSITTMTTGSSESHNVIPNEVKLMGTEWARDKAVREQVLRDIERIASNIAAAHGAAATSDFTFGHDCCDNDPEVTAQVRCIGERILGSANIIDPKAPLYGGEDFSAYQLEKPGCFLWLGTADKSQGICEMCHSTKFRVDETALPVGVSFHVGYVYDNVMA | not soluble |
| KVKLKKEIVTLGVEGIDPRHVVGTYVKPQDWNDLIADPEVFVVDTRNDYEIEIGTFKGAVNPNTETFREFPDYVKENMDPAKHKKVAMFCTGGIRCEKSTAYMKEQGFEEVYHLEGGILKYLEEVPQEESMWEGDCYVFDGRVAVNHQLEKA | not soluble |
| MAIAETDTEVHTPFEQDFEKDVAATQRYFDSSRFAGIIRLYTARQVVEQRGTIPVDHIVAREAAGAFYERLRELFAARKSITTFGPYSPGQAVSMKRMGIEAIYLGGWATSAKGSSTEDPGPDLASYPLSQVPDDAAVLVRALLTADRNQHYLRLQMSERQRAATPAYDFRPFIIADAGTGHGGDPHVRNLIRRFVEVGVPGYHIEDQRPGTKKCGHQGGKVLVPSDEQIKRLNAARFQLDIMRVPGIIVARTDAEAANLIDSRADERDQPFLLGATKLDVPSYKSCFLAMVRRFTNWASRSSMVIFSMRLATASTRRPAVGLSAKAFSAWSPTRSTRGGRTASSRSTAFSTRSSRGSWRPGRTTRA | not soluble |
| MAKIPVTVLSGYLGSGKTTLLNHILKNREGRRIAVIVNDMSEVNIDKDLVAQGGGLSRTDEKLVELSNGCICCTLRDDLLREVERLVHKGGIDQIVIESTGISEPVPVAQTFSYIDEELGIDLTSICRLDTMVTVVDANRFVNDIRSEDLLADRDESVDDEDERTIADLLIDQVEFCDVMIINKIDLISDKALEKLENVLRALQPEAKIIKTVNAKVELSDVLNTQLFDFEKASESAGWIKELTAGGHATHTPETEEYGITSFAYTRRLPFHAKRFHQWLEQMPENIVRTKGIVWLAQYNDVACLLSQAGSSCNIHPVTYWVATMSESQQQAILEARQDVVEDWDIEYGDRQTQFVIIGTDLDQEKISRELDACLIHSSEIDEDWRLLDSPYQWTYDRRM | not soluble |
| MGGSHHHHHHGMASALMLPYPSALGDQYWEEILLPKNGENVETMKKLTQNHKAKGLPSNDTDCPQKKEGKAQIVVPVTFRDVTVIFTEAEWKRLSPEQRNLYKEVMLENYRNLLSLGQEIETILANIVKSHLY | not soluble |
| MGHHHHHHSHAPHKHGFLEGRHAELCFLDVIPFWKLDLDQDYRVTCFTSWSPCFSCAQEMAKFISKNKHVSLCIFTARIYDDQGRCQEGLRTLAEAGAKISIMTYSEFKHCWDTFVDHQGCPFQPWDGLDEHSQDLSGRLRAILQNQEN | not soluble |
| MGHHHHHHSHMETESGSVAQAGVQWHNLGSLQPPPSRLKQLSYLSLPSSWDYRCTPPHPANFLYFNRDGISPCCPGWSPTPKLTQSTHLGLSKC | not soluble |
| MGHHHHHHSHMKSLILPPEHILKRGDSEAIAYAFFHLQHWKQIEGALNLLQCTWEGTFRMIPYPLEKGHLFYPYPSCTETADRELLPTFHHVSVYPKKELPLFIHFTAGFCSSTAMIAILTHQFPEIMGIFAKAVLGLWCPQPWASSGFEENTQDLKSEDLGLSSG | not soluble |
| MMEPVEECDENVGAFQWQQASETLTAIRQRFGFALETADQEDQARAVRFTWSLKKTSMLEPDEILKEIQKVLESYGIDYEQQKRYLLRCSHVDPLTDASVKWDIEVCTLPRLYLNGVHFQRISGSSSDFKNITTKISEELDI | not soluble |
| MSADVERVLIQLQDEAGEVLGSPFDVPLDISPDKLQLVCNALLQKEEPVPFLFFVKDAELVSSLGSCIQTLGLETEQVLPVVYQPQAVFRVRAVARCTSSLEGHTEAVISVAFSPTGKYLASGSGDTTVRFWDLSTETPHHTSRGHTHWVLSIAWSPDGKKLASGCKNSQIFLWDPVTGKQIGKTLTGHTKWITWLCWEPLHLNPECRYLASTSKDCTIRIWDTVLGRYDKILTGHTHSVTCVKWGGDGLLYTSSQDRTIKVWRAKDGVQCRTLQGHAHWVNTLALSTDYVLRTGAFEPANATINPQDLTGSLEEIKEKALKRYNSVRGEGHERLVSGSDDFTMFLWNPAEDKKPVARLTGHQALVNEVLFSPDTRLIASASFDKSIKIWDGKTGKYLNSLRGHVGPVYQVAWSADSRLLVSGSSDSTLKVWDIKTGKLNADLPGHADEVFAVDWSPDGQRVASGGKDKCLRIWRK | soluble |
| MSIMRTRTLQEVFEESKLVISQLTEEEIHEFKEAFLLFDKDGNGTISIKELGVAMRALGQNPTEQQMMEIIHDVDLDGNGQVEFPEFCVMMKRIMKETDSEMIREAFKIFDRDGNGVITANEFKLFMINMGMCFDEVEVEEMMNEVDCDGNGEIDYEEFVKIFS | not soluble |
| MSLKIAIEGCAHGELEKIYDLIGSIQEEQNITVDLLICCGDFQSTRNLQDLQCMAVPQKHLDMCSFYKYYSGEKKAPILTLFIGGNHEASNYLQELPYGGWVAPNIYYLGYAGVVDCNGIRIGGISGIYKGHDFLKGRFEFPPYDEGSKRSVYHQRQIDVFRLKQLSPGVDIMLSHDWPRGITRHGNETQLLRFKPAFREDIESNRLGSMPCEELLRKLQPPYWFAAHLHCKFAALVEHPGERCTKFLALDKCLPKRRFLQILDIPTAEDEGHHHHHH | not soluble |
| MSSYPSSGRRRPITRSEAEERALDKISREAEARMKLKRETREQARQGRYQLLEKKVEEDAEAYRHDTADKVIELQDRVQQVMFLYSQLDNEKSTLLYEVDLLKDELEEKDASLNLSSRECRDLTSEVKALKRTIDALHASQQQLKQEISQRDQLIQENGLCLVEEDPDDEGSESTNNASGEIRSGPYLFKRETIRLVDRVVPGAASLDDKIQKLVDTNKKMRKDYEELEQTIYTQRHARNARDSANVIPNQGVDDVNKDAAKQLAEMKLKMQDLERENTNQQGNVIRMEGQMKRYKSNADVAEKELDELKTQMRQTKKELRDKENALDEQKETNKHLQSRLEKMRMQRTGRPL | not soluble |
| MVAITTAASRLGVAPYNESRPVELRPDFSLDDAKMVIRAVYRQVLGNDYIMDSERLKGAESLLTNGSISVREFVRTVAKSELYKKKFLYNNFQTRVIELNYKHLLGRAPFSEDEVIFHLDLYENQGFDADIDSYIDSVEYQENFGENIVPYYRFNNQVGDRTVGFTRMFRLYRGYANSDRSQLERSSSRLATELGQNTVSAIVGPSGSNAGWAYRPSRAGNTPAKALGGTVPFGQASKLFRVEITAISAPGYPKVRRSNKAVIVPFEQLNQTLQQINRLGGKVASITPASLSLEHHHHHH | not soluble |
| THVYNFDVPQDPESYVHRIGRTGRAGKTGMAMTFITPREKSMLRAIEQTTKRKMDRMKEPTLDEALEGQQQVTVERLRTTISENNLNFYMTAAAELLEDHDAVTVVAAAIKMATKEPDDTPVRLTDEAPMVSK | not soluble |

Source: the DeepSol protein solubility set
